From PMC8552907
Results are given in words; binding and its absence hold for the method and conditions named. Binding seen in cells or lysates may run through a third protein. Some binding calls cover weakened binding; strength is not graded here. For part of these data: Tags and fused reporters may be left off the sequences shown. Blank lines part the entries; values can stand above or below the molecule they belong to.

Chains of the proteins cited; added tags and fusions are not shown.
UniProt O15393: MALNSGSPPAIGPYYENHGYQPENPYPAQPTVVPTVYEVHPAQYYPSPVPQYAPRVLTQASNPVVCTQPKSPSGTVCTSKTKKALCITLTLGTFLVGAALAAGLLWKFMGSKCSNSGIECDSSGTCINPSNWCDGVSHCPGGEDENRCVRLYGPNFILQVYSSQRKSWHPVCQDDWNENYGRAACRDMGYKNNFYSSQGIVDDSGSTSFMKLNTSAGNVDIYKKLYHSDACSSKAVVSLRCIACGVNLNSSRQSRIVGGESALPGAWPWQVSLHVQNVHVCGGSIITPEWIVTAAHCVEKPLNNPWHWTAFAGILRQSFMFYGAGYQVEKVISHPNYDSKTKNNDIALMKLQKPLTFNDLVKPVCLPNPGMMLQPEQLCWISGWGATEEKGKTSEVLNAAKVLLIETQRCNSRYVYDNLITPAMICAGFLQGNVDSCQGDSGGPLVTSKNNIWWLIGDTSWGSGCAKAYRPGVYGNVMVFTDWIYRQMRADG
UniProt Q13838: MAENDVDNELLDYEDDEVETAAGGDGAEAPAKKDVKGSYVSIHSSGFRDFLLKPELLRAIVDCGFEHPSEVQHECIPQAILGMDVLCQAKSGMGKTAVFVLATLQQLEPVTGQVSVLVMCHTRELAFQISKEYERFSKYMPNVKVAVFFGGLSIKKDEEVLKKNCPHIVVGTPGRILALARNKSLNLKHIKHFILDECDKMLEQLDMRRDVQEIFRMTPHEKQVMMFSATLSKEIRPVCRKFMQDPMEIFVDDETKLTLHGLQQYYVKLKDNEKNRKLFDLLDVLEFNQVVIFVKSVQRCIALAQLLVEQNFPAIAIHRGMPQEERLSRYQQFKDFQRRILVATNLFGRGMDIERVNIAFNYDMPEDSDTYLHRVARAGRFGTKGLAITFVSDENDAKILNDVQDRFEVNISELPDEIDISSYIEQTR

What was measured:
[1] = target: Strep-HA-tagged TMPRSS2 (human) (UniProt O15393); test: co-IP
[2] = target: Strep-HA-tagged DDX39B (human) (UniProt Q13838); test: co-IP

Molecule: V5-tagged DDX39B (from UniProt Q13838 1-428) (enzyme)
- binding [1]: binds

- binding [2]: binds
Molecule: V5-tagged TMPRSS2 (from UniProt O15393 1-492) (enzyme)

- binding [2]: binds
B1: V5-tagged TOP3B (enzyme, UniProt O95985 1-862)
chain: MKTVLMVAEKPSLAQSIAKILSRGSLSSHKGLNGACSVHEYTGTFAGQPVRFKMTSVCGHVMTLDFLGKYNKWDKVDPAELFSQAPTEKKEANPKLNMVKFLQVEGRGCDYIVLWLDCDKEGENICFEVLDAVLPVMNKAHGGEKTVFRARFSSITDTDICNAMACLGEPDHNEALSVDARQELDLRIGCAFTRFQTKYFQGKYGDLDSSLISFGPCQTPTLGFCVERHDKIQSFKPETYWVLQAKVNTDKDRSLLLDWDRVRVFDREIAQMFLNMTKLEKEAQVEATSRKEKAKQRPLALNTVEMLRVASSSLGMGPQHAMQTAERLYTQGYISYPRTETTHYPENFDLKGSLRQQANHPYWADTVKRLLAEGINRPRKGHDAGDHPPITPMKSATEAELGGDAWRLYEYITRHFIATVSHDCKYLQSTISFRIGPELFTCSGKTVLSPGFTEVMPWQSVPLEESLPTCQRGDAFPVGEVKMLEKQTNPPDYLTEAELITLMEKHGIGTDASIPVHINNICQRNYVTVESGRRLKPTNLGIVLVHGYYKIDAELVLPTIRSAVEKQLNLIAQGKADYRQVLGHTLDVFKRKFHYFVDSIAGMDELMEVSFSPLAATGKPLSRCGKCHRFMKYIQAKPSRLHCSHCDETYTLPQNGTIKLYKELRCPLDDFELVLWSSGSRGKSYPLCPYCYNHPPFRDMKKGMGCNECTHPSCQHSLSMLGIGQCVECESGVLVLDPTSGPKWKVACNKCNVVAHCFENAHRVRVSADTCSVCEAALLDVDFNKAKSPLPGDETQHMGCVFCDPVFQELVELKHAASCHPMHRGGPGRRQGRGRGRARRPPGKPNPRRPKDKMSALAAYFV
